The list is a part of this screen's results and no random one: it gathers tests that were run many times, whatever their T/C, doses with no T/C, and many T/C values between a quarter and a half above the control. Other doses and runs of a compound stand elsewhere. T/C is the treated group as % of the vehicle group. Some doses have a count of surviving animals in place of a T/C: the source holds a T/C of zero for them, seemingly a mark for toxic or unscored doses. Some survivor counts are full or nearly so, which does not show that the dose was tolerated: survival well below the control is almost never listed, so the zero probably covers shortened survival too. Counts of survivors are from the toxicity check (mostly the fifth day) where no day follows; animals may have died later. Schedules are NCI's codes, taken here to give the interval after Q, in days (D) or hours (H), and the number of doses after X. Signs of the kind (2×) say how often a value occurs here. Some doses were run more than once; their values stand side by side, smallest first. For survival time, this PubChem deposit counts one and a half times the control or more as active, and values a quarter to a half above the control carry no call in these data; other NCI protocols may use other cut-offs. Some T/C values are followed by the survivors on the day toxicity was checked, most often the fifth; where none is given, no animal had died by that day.
Tested on: P388 leukemia ip, CD2F1 mice, survival T/C
Experiment: NCI In Vivo Anticancer Drug Screen. Data for tumor model P388 Leukemia (intraperitoneal) in CD2F1 (CDF1) mice
Details: T/C endpoint: median survival time, higher T/C = longer survival
[1] = dose: 200.0 mg/kg/injection, schedule: Q01DX009 (ip), vehicle: saline with Tween-80
[2] = dose: 400.0 mg/kg/injection, schedule: Q04DX003 (ip), vehicle: saline with Tween-80
[3] = dose: 100.0 mg/kg/injection, schedule: Q04DX003 (ip), vehicle: saline with Tween-80

COc1ccc(S(=O)(=O)NNS(=O)(=O)c2ccc(OC)c(OC)c2)cc1OC
survivor count (dose: 100.0 mg/kg/injection, schedule: Q01DX005 (ip), vehicle: saline with Tween-80): 6 of 6 | survivor count (dose: 200.0 mg/kg/injection, schedule: Q01DX005 (ip), vehicle: saline with Tween-80): 6 of 6

O=S(/N=C/c1ccccc1)c1ccc(Cl)cc1 (centres undefined)
survivor count [1]: 6 of 6

COc1ccc(CN2C(=O)C(Cl)=C(Cl)C2=O)c(OC)c1
survivor count (dose: 240.0 mg/kg/injection, schedule: Q01DX005 (ip), vehicle: saline with Tween-80): 0 of 6

Cc1cccc(C(=O)CC[N+](C)(C)C)c1
survivor count (dose: 50.0 mg/kg/injection, schedule: Q01DX009 (ip), vehicle: saline): 3 of 6 | survivor count (dose: 100.0 mg/kg/injection, schedule: Q01DX009 (ip), vehicle: saline): 0 of 6 | survivor count (dose: 200.0 mg/kg/injection, schedule: Q01DX009 (ip), vehicle: saline): 0 of 6

C[C@]12CCC(=O)C=C1CC[C@@H]1[C@@H]2C(=O)C[C@@]2(C)[C@H]1CC[C@]2(O)C(=O)C=O
T/C (dose: 25.0 mg/kg/injection, schedule: Q01DX009 (ip), vehicle: Klucel (hydroxypropylcellulose) (HPC)): 128 % of control | T/C (dose: 50.0 mg/kg/injection, schedule: Q01DX009 (ip), vehicle: Klucel (hydroxypropylcellulose) (HPC)): 128 % of control | survivor count (dose: 100.0 mg/kg/injection, schedule: Q01DX009 (ip), vehicle: Klucel (hydroxypropylcellulose) (HPC)): 3 of 6 | survivor count (dose: 200.0 mg/kg/injection, schedule: Q01DX009 (ip), vehicle: Klucel (hydroxypropylcellulose) (HPC)): 0 of 6

c1ncn(C23CC4CC(CC(C4)C2)C3)n1
survivor count (dose: 12.5 mg/kg/injection, schedule: Q01DX001 (ip), vehicle: Klucel (hydroxypropylcellulose) (HPC)): 0 of 6 | survivor count (dose: 25.0 mg/kg/injection, schedule: Q01DX001 (ip), vehicle: Klucel (hydroxypropylcellulose) (HPC)): 0 of 6 | survivor count (dose: 50.0 mg/kg/injection, schedule: Q01DX001 (ip), vehicle: Klucel (hydroxypropylcellulose) (HPC)): 0 of 6 | survivor count (dose: 100.0 mg/kg/injection, schedule: Q01DX001 (ip), vehicle: Klucel (hydroxypropylcellulose) (HPC)): 0 of 6 (2×) | survivor count (dose: 200.0 mg/kg/injection, schedule: Q01DX001 (ip), vehicle: Klucel (hydroxypropylcellulose) (HPC)): 0 of 6 | survivor count (dose: 400.0 mg/kg/injection, schedule: Q01DX001 (ip), vehicle: Klucel (hydroxypropylcellulose) (HPC)): 1 of 6

CN1CCN(C)B1N=S(C)(C)=O
survivor count (dose: 200.0 mg/kg/injection, schedule: Q01DX005 (ip), vehicle: olive oil, sesame oil, peanut oil): 6 of 6

CN(C)CCCOC1=Nc2ccccc2O/C1=C/c1cccs1
survivor count (dose: 200.0 mg/kg/injection, schedule: Q04DX003 (ip), vehicle: saline): 0 of 6 | survivor count (dose: 400.0 mg/kg/injection, schedule: Q04DX003 (ip), vehicle: saline): 0 of 6

CCCCCCCCCCC(=O)[O][Sn]([CH](C)C)([CH](C)C)[CH](C)C
survivor count (dose: 50.0 mg/kg/injection, schedule: Q01DX009 (ip), vehicle: saline + Tween-80 + alcohol): 0 of 6 | survivor count (dose: 100.0 mg/kg/injection, schedule: Q01DX009 (ip), vehicle: saline + Tween-80 + alcohol): 0 of 6 | survivor count (dose: 200.0 mg/kg/injection, schedule: Q01DX009 (ip), vehicle: saline + Tween-80 + alcohol): 0 of 6

OCCN1CCN(CCCN2c3cscc3Sc3ccc(Cl)cc32)CC1
survivor count (dose: 25.0 mg/kg/injection, schedule: Q01DX005 (ip), vehicle: Klucel (hydroxypropylcellulose) (HPC)): 5 of 6 | survivor count (dose: 100.0 mg/kg/injection, schedule: Q01DX005 (ip), vehicle: Klucel (hydroxypropylcellulose) (HPC)): 3 of 6 | survivor count (dose: 200.0 mg/kg/injection, schedule: Q01DX005 (ip), vehicle: Klucel (hydroxypropylcellulose) (HPC)): 0 of 6

O=C(O)C1=C(C(=O)O)CCC1
survivor count (dose: 200.0 mg/kg/injection, schedule: Q01DX009 (ip), vehicle: distilled water + Tween-80): 0 of 6 | survivor count (dose: 400.0 mg/kg/injection, schedule: Q01DX009 (ip), vehicle: distilled water + Tween-80): 0 of 6

C=C1C(=O)OC2CC1C(O)C/C(C)=C/CC/C(C)=C/CCC2(C)O (centres undefined)
survivor count (dose: 64.0 mg/kg/injection, schedule: Q01DX009 (ip), vehicle: Klucel (hydroxypropylcellulose) (HPC)): 3 of 6

COc1ccc2c(c1)[C@]13CCN(N=O)[C@H](C2)[C@@H]1CCC(=O)C3
survivor count (dose: 200.0 mg/kg/injection, schedule: Q01DX001 (ip), vehicle: saline with Tween-80): 3 of 6 | survivor count (dose: 400.0 mg/kg/injection, schedule: Q01DX001 (ip), vehicle: saline with Tween-80): 0 of 6

O=C(Nc1ccc(C2=NCCN2)cc1)c1ccc(NC(=O)c2ccc(C3=NCCN3)cc2)cc1
T/C (dose: 40.0 mg/kg/injection, schedule: Q01DX010 (ip), vehicle: saline): 136 % of control | T/C (dose: 60.0 mg/kg/injection, schedule: Q01DX010 (ip), vehicle: saline): 145 % of control

O=P(c1ccccc1)(c1ccccc1)c1ccccc1.O=P(c1ccccc1)(c1ccccc1)c1ccccc1.O=P(c1ccccc1)(c1ccccc1)c1ccccc1.O=P(c1ccccc1)(c1ccccc1)c1ccccc1.[Fe+3].[O-][Cl+3]([O-])([O-])O
survivor count [2]: 0 of 6

CCCCCCCC/C=C\CCCCCCCCN1CC(C(=O)[O][Pb]([CH2]C)([CH2]C)[CH2]C)CC1=O (centres undefined)
T/C (dose: 3.0 mg/kg/injection, schedule: Q01DX009 (ip), vehicle: saline with Tween-80): 140 % of control | survivor count (dose: 12.0 mg/kg/injection, schedule: Q01DX009 (ip), vehicle: saline with Tween-80): 5 of 6

C[n+]1c2ccccc2cc2ccccc21
survivor count (dose: 50.0 mg/kg/injection, schedule: Q04DX003 (ip), vehicle: saline with Tween-80): 1 of 6 | survivor count [3]: 0 of 6

O=C(NCCCCCCNC(=O)C1CCCN1)C1CCCN1 (centres undefined)
survivor count (dose: 120.0 mg/kg/injection, schedule: Q01DX005 (ip), vehicle: saline): 4 of 6 | survivor count (dose: 240.0 mg/kg/injection, schedule: Q01DX005 (ip), vehicle: saline): 0 of 6

CC1=C(C#N)C(C)(C)C(C#N)=C(C)N1C
survivor count (dose: 200.0 mg/kg/injection, schedule: Q01DX009 (ip), vehicle: other): 0 of 6 | survivor count [1]: 0 of 5 | survivor count (dose: 400.0 mg/kg/injection, schedule: Q01DX009 (ip), vehicle: other): 0 of 6

C=[CH][Pb]([CH]=C)([CH]=C)[O]C(C)=O
T/C (dose: 2.5 mg/kg/injection, schedule: Q01DX009 (ip), vehicle: saline with Tween-80): 125 % of control | survivor count (dose: 10.0 mg/kg/injection, schedule: Q01DX009 (ip), vehicle: saline with Tween-80): 6 of 6

Cc1c([N+](=O)[O-])oc2c1C(=O)c1ccccc1C2=O
survivor count (dose: 240.0 mg/kg/injection, schedule: Q01DX005 (ip), vehicle: Klucel (hydroxypropylcellulose) (HPC)): 0 of 6

O=C(Nc1ccc(C2=NCCCN2)cc1)c1ccc(C(=O)Nc2ccc(C3=NCCCN3)cc2)cc1
T/C (dose: 4.32 mg/kg/injection, schedule: Q04DX003 (ip), vehicle: Klucel (hydroxypropylcellulose) (HPC)): 127 % of control | T/C (dose: 5.0 mg/kg/injection, schedule: Q04DX003 (ip), vehicle: saline with Tween-80): 131 and 136 % of control | T/C (dose: 7.2 mg/kg/injection, schedule: Q04DX003 (ip), vehicle: Klucel (hydroxypropylcellulose) (HPC)): 144 % of control | T/C (dose: 10.0 mg/kg/injection, schedule: Q01DX009 (ip), vehicle: saline): 130 % of control [5 of 6 alive] | T/C (dose: 10.0 mg/kg/injection, schedule: Q04DX003 (ip), vehicle: saline with Tween-80): 145 % of control | T/C (dose: 10.8 mg/kg/injection, schedule: Q04DX003 (ip), vehicle: Klucel (hydroxypropylcellulose) (HPC)): 135 [7 of 8 alive] and 144 % of control | survivor count (dose: 30.0 mg/kg/injection, schedule: Q04DX003 (ip), vehicle: Klucel (hydroxypropylcellulose) (HPC)): 4 of 8 and 5 of 8 | survivor count (dose: 50.0 mg/kg/injection, schedule: Q04DX003 (ip), vehicle: Klucel (hydroxypropylcellulose) (HPC)): 4 of 8 | survivor count [3]: 0 of 6 | survivor count (dose: 200.0 mg/kg/injection, schedule: Q04DX003 (ip), vehicle: saline with Tween-80): 0 of 6 | survivor count [2]: 0 of 6

Ic1ccc2c(c1)N(c1ccccc1)c1cc(N=c3ccc4nc5ccc(I)cc5n(-c5ccccc5)c-4c3)ccc1N2
survivor count (dose: 400.0 mg/kg/injection, schedule: Q01DX009 (ip), vehicle: Klucel (hydroxypropylcellulose) (HPC)): 6 of 6

CC(=O)Nc1ccc2c(c1)C(N)c1ccccc1-2 (centres undefined)
survivor count [2]: 4 of 6
